# Reference: PubChem BioAssay AID186 (DTP/NCI, 2004)
# Shown are survivors of the treated group in tumour-free mice. Survivors were counted at the toxicity check, usually on the fifth day, unless a day is given; later deaths do not show. Schedules are NCI's codes, read here as Q, the interval in days (D) or hours (H), X, the number of doses.
# System: B6D2F1 mice, nontumored toxicity test, survival
# Test: NCI In Vivo Anticancer Drug Screen. Data for tumor model Nontumored Animals (Toxicity Test) in B6D2F1 (BDF1) mice
compound,measurement,setting,value
[Cl][Pt+2][Cl].[NH-]C1CCCC1.[NH-]C1CCCC1,survivor count,"dose: 10.0 mg/kg/injection, schedule: Q01DX009 (ip), vehicle: Klucel (hydroxypropylcellulose) (HPC)",8 of 8
same,survivor count,"dose: 20.0 mg/kg/injection, schedule: Q01DX009 (ip), vehicle: Klucel (hydroxypropylcellulose) (HPC)",8 of 8
same,survivor count,"dose: 40.0 mg/kg/injection, schedule: Q01DX009 (ip), vehicle: Klucel (hydroxypropylcellulose) (HPC)",7 of 8
same,survivor count,"dose: 40.0 mg/kg/injection, schedule: Q04DX003 (ip), vehicle: Klucel (hydroxypropylcellulose) (HPC)",8 of 8
same,survivor count,"dose: 80.0 mg/kg/injection, schedule: Q01DX001 (ip), vehicle: Klucel (hydroxypropylcellulose) (HPC)",8 of 8
same,survivor count,"dose: 80.0 mg/kg/injection, schedule: Q01DX009 (ip), vehicle: Klucel (hydroxypropylcellulose) (HPC)",8 of 8
same,survivor count,"dose: 80.0 mg/kg/injection, schedule: Q04DX003 (ip), vehicle: Klucel (hydroxypropylcellulose) (HPC)",8 of 8
same,survivor count,"dose: 160.0 mg/kg/injection, schedule: Q01DX001 (ip), vehicle: Klucel (hydroxypropylcellulose) (HPC)",8 of 8
same,survivor count,"dose: 160.0 mg/kg/injection, schedule: Q01DX009 (ip), vehicle: Klucel (hydroxypropylcellulose) (HPC)",8 of 8
same,survivor count,"dose: 160.0 mg/kg/injection, schedule: Q04DX003 (ip), vehicle: Klucel (hydroxypropylcellulose) (HPC)",8 of 8
same,survivor count,"dose: 320.0 mg/kg/injection, schedule: Q01DX001 (ip), vehicle: Klucel (hydroxypropylcellulose) (HPC)",8 of 8
same,survivor count,"dose: 320.0 mg/kg/injection, schedule: Q04DX003 (ip), vehicle: Klucel (hydroxypropylcellulose) (HPC)",8 of 8
same,survivor count,"dose: 640.0 mg/kg/injection, schedule: Q01DX001 (ip), vehicle: Klucel (hydroxypropylcellulose) (HPC)",8 of 8
same,survivor count,"dose: 640.0 mg/kg/injection, schedule: Q04DX003 (ip), vehicle: Klucel (hydroxypropylcellulose) (HPC)",8 of 8
same,survivor count,"dose: 1280.0 mg/kg/injection, schedule: Q01DX001 (ip), vehicle: Klucel (hydroxypropylcellulose) (HPC)",8 of 8
NCCc1ccc(O)c(O)c1,survivor count,"dose: 40.0 mg/kg/injection, schedule: Q01DX009 (sc), vehicle: saline",8 of 8
same,survivor count,"dose: 80.0 mg/kg/injection, schedule: Q01DX009 (ip), vehicle: saline",7 of 8
same,survivor count,"dose: 80.0 mg/kg/injection, schedule: Q01DX009 (oral), vehicle: saline",8 of 8
same,survivor count,"dose: 80.0 mg/kg/injection, schedule: Q01DX009 (sc), vehicle: saline",8 of 8
same,survivor count,"dose: 160.0 mg/kg/injection, schedule: Q01DX009 (ip), vehicle: saline",7 of 8
same,survivor count,"dose: 160.0 mg/kg/injection, schedule: Q01DX009 (oral), vehicle: saline",8 of 8
same,survivor count,"dose: 160.0 mg/kg/injection, schedule: Q01DX009 (sc), vehicle: saline",8 of 8
same,survivor count,"dose: 320.0 mg/kg/injection, schedule: Q01DX009 (ip), vehicle: saline",8 of 8
same,survivor count,"dose: 320.0 mg/kg/injection, schedule: Q01DX009 (oral), vehicle: saline",8 of 8
same,survivor count,"dose: 320.0 mg/kg/injection, schedule: Q01DX009 (sc), vehicle: saline",8 of 8
same,survivor count,"dose: 640.0 mg/kg/injection, schedule: Q01DX009 (ip), vehicle: saline",6 of 8
same,survivor count,"dose: 640.0 mg/kg/injection, schedule: Q01DX009 (oral), vehicle: saline",8 of 8
same,survivor count,"dose: 640.0 mg/kg/injection, schedule: Q01DX009 (sc), vehicle: saline",6 of 8
